Experimental data as given in PubChem BioAssay AID504848 (National Center for Advancing Translational Sciences (NCATS), 2011).
Screen size: about 2,300 compounds; about 1,400 (61%) were called active. The set was probably picked from earlier hits. The shares of active, inactive and inconclusive entries below differ from those in the screen. Calls come from the whole dose curve; as a rule, active = well fitted inhibition curve with a large enough effect; inconclusive = small, poorly fitted or top-dose-only effect, or effect the other way; inactive = no such curve, though single readings can be large or run the other way. Potencies beside an inconclusive call are fits to weak or partial responses and may not hold up.

Test: Confirmation screen for delayed death inhibitors of the malarial parasite plastid, 96 hour incubation; note: nearly all actives have a fitted effect of over 60% in size
Details: P. falciparum luciferase growth in erythrocytes; series mostly up to 28.7 µM
Method in brief: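 Erythrocytes infected with luciferase-expressing P. falciparum (2% hematocrit, 0.1% parasitemia final) in RPMI 1640 with 0.5% Albumax, exposed to compounds 96 h at 37 C, 5% CO2. Growth inhibition read as decreased luciferase luminescence.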
Potency is the fitted concentration of half-maximal effect.

| Structure (SMILES) | Potency |
| --- | --- |
| Cc1sc(NC(=O)c2c(F)cccc2F)nc1-c1ccccc1 | inactive |
| COc1ccc(CN2C(=O)c3ccccc3C2C(=O)NC2CCC(C)CC2)c(OC)c1 (centres undefined) | active: 7.08 µM |
| Cc1ccc([C@H]2C(C#N)=C(N)Oc3cc(C)oc(=O)c32)o1 | inconclusive: 10 µM [inhibitor, single point] |
| CCCCN(C(=O)CSc1cc(C)c2ccc(OC)cc2n1)c1c(N)n(Cc2ccccc2)c(=O)[nH]c1=O | inconclusive: 0.398 µM [inhibitor, full curve, poor fit] |
| O=C(CCl)NCCN1C(=O)S/C(=C\c2cccnc2)C1=O | active: 5.01 µM |
| O=S(=O)(c1ccc(OCc2ccc(Br)cc2)cc1)N1CCOCC1 | active: 8.91 µM |
| NC12CC3CC(C1)CC(CO)(C3)O2 | inconclusive: 7.08 µM [inhibitor, partial curve] |
| COc1ccc(CCNC(=O)CCC(=O)NC2CCCC(C)C2C)cc1OC (centres undefined) | inconclusive: 12.6 µM [inhibitor, partial curve, poor fit] |
| O=C(Nn1c(COc2ccccc2)nc2ccccc2c1=O)C(Cl)(Cl)Cl | inconclusive: 14.1 µM [inhibitor, single point] |
| CCOc1ccc(CCNC(=O)COC(=O)c2ccc(C)s2)cc1OCC | inconclusive: 12.6 µM [inhibitor, partial curve, poor fit] |
| Cc1ccccc1Nc1nc(N)nc(COC(=O)CC2CC3CCC2C3)n1 (centres undefined) | inconclusive: 12.6 µM [inhibitor, single point] |
| COc1ccccc1-c1cc(C(=O)N/N=C/c2ccc(C)o2)c2ccccc2n1 | inactive |
| Cc1ccc(NC(=O)C2CCCN(c3cnccn3)C2)c(C)c1 (centres undefined) | inconclusive: 14.1 µM [inhibitor, partial curve] |
| CC(=O)NC(=O)COC(=O)/C=C/c1c(C)nn(Cc2c(Cl)cccc2Cl)c1Cl | inactive |
| COc1ccc2[nH]c(=O)c(CN(CCCN(C)C)C(=O)Nc3ccc(F)cc3)cc2c1 | inconclusive: 7.94 µM [inhibitor, full curve, poor fit] |
| NC(=O)C1=C[C@H](C2CCCCC2)C[C@H](OCc2ccc(CO)cc2)O1 | inconclusive: 5.01 µM [activator, full curve] |
| CCC1CN(C(=O)N2CCC(C(=O)NCc3ccc(OC)cc3OC)CC2)c2ccccc2O1 (centres undefined) | inconclusive: 12.6 µM [inhibitor, partial curve, poor fit] |
| COc1ccc(C(=O)/C=C2/C(=O)Nc3ccccc32)c(OC)c1 | inconclusive: 12.6 µM [inhibitor, partial curve] |
| CC(Sc1ncnc2sc(-c3ccccc3)cc12)C(=O)NCC1CCCO1 (centres undefined) | inconclusive: 17.8 µM [inhibitor, partial curve, poor fit] |
| CC(C)c1cc(C(=O)NC2CCCc3c2cnn3-c2ccccc2F)no1 (centres undefined) | inconclusive: 15.8 µM [inhibitor, single point] |

| Structure (SMILES) | Potency |
| --- | --- |
| Cc1ccccc1OCC(=O)Nc1ccc([N+](=O)[O-])cc1 | inconclusive: 15.8 µM [inhibitor, partial curve, poor fit] |
| COc1ccccc1C(=O)Nc1ccc2nc3n(c(=O)c2c1)CCCC3 | active: 3.55 µM |
| Clc1cccc(OCCCCCN2CCOCC2)c1 | inactive |
| COc1ccccc1NC(=O)Cc1nnc(SCC(=O)NC2CCCCC2)n1C | inactive |
| CNc1ncc(C(=O)c2ccc(-c3ccccc3)cc2)s1 | inconclusive: 1.41 µM [activator, partial curve] |
| CCc1ccc(N(CC(=O)NCc2ccco2)C(=O)CCC(=O)Nc2ccccn2)cc1 | inconclusive: 15.8 µM [inhibitor, single point] |
| CC(Oc1ccccc1F)C(=O)Nc1ccc2ccccc2c1 (centres undefined) | inactive |
| Cn1cccc1/C=N/NC(=O)CNc1cccc2ccccc12 | inconclusive: 15.8 µM [inhibitor, single point] |
| NC(=S)Nn1c(-c2ccccc2)nc2ccccc2c1=O | inactive |
| COc1ccc(CCN(C)Cc2ccc(OC)c(OCc3ccccc3)c2)cc1OC | inconclusive: 14.1 µM [inhibitor, partial curve, poor fit] |
| CC(=O)N1CCCc2cc(S(=O)(=O)N3CCCC(C(=O)NCc4ccccc4)C3)ccc21 (centres undefined) | inconclusive: 12.6 µM [inhibitor, partial curve] |
| COc1cccc(NC(=O)c2nc(S(C)(=O)=O)ncc2Cl)c1 | inconclusive: 11.2 µM [inhibitor, partial curve, poor fit] |
| c1ccc(-c2ccc(-c3cn4c(n3)CCC4)cc2)cc1 | inconclusive: 20 µM [inhibitor, single point] |
| N#C/C(=C\C=C\c1ccccc1[N+](=O)[O-])C(=O)NC1CCCCC1 | active: 5.01 µM |
| CSc1nnc(C)c(=O)[nH]1 | inactive |
| Cc1cc(C)nc(S/C=C/C(=O)c2ccccc2)n1 | inconclusive: 0.141 µM [inhibitor, full curve, poor fit] |
| O=C(CCCc1ccccc1)Nc1ccnn1C1CCN(Cc2ccc(CO)o2)CC1 | inconclusive: 14.1 µM [inhibitor, single point] |
| Cc1cc(OCC(=O)N2CCCC2)cc(C)c1Cl | inactive |
| O=C(Nc1ccccc1SCC1CSc2nc3ccccc3c(=O)n21)c1ccccc1Cl (centres undefined) | active: 11.2 µM |
| COc1ccc(-c2cc(C(=O)N/N=C/c3sccc3C)c3ccccc3n2)c(OC)c1 | inconclusive: 12.6 µM [inhibitor, partial curve, poor fit] |

| Structure (SMILES) | Potency |
| --- | --- |
| CCC1CCCCN1CCCNC(=O)Cn1c(=O)c2cccn2c2cccnc21 (centres undefined) | inactive |
| C=CCNC(=O)c1onc(CSc2cccc3ccccc23)c1C(=O)O | inactive |
| COc1ccc(NC(=O)c2cccc(S(=O)(=O)NCc3ccco3)c2)c(OC)c1 | inconclusive: 6.31 µM [inhibitor, partial curve, poor fit] |
| CCOCCCNC(=S)N1CCN(c2nc(-c3ccccc3)cs2)CC1 | active: 12.6 µM |
| Cc1ccc(C(=O)N/C(=C\c2ccc(-c3ccc(Cl)cc3)o2)C(=O)NCCCN(C)C)cc1 | inconclusive: 0.794 µM [inhibitor, full curve, poor fit] |
| CC(NC(=O)c1cc2sccc2n1C)c1ccc2c(c1)OCCO2 (centres undefined) | inactive |
| COc1ccccc1OCC(=O)Nc1ccc(S(=O)(=O)N2CCCCCC2)cc1 | active: 12.6 µM |
| O=C(NCc1ccc2c(c1)OCO2)c1nc(S(=O)(=O)Cc2ccccc2F)ncc1Cl | inconclusive: 12.6 µM [inhibitor, partial curve, poor fit] |
| Cc1nc([N+](=O)[O-])c(Br)n1CC(=O)c1ccc(Cl)cc1 | active: 7.94 µM |
| CCOC(=O)c1ccc2c(c1)n(CC)c(/C=C/N(C)c1ccccc1)[n+]2CC | active: 0.0891 µM |
| O=C(NCCCn1ccnc1)c1cccc(S(=O)(=O)Nc2ccc(Br)cc2)c1 | inconclusive: 11.2 µM [inhibitor, partial curve] |
| O=C(Nc1ccc2c(c1)CCCN2C(=O)c1ccccc1)c1ccccc1Br | inconclusive: 11.2 µM [inhibitor, partial curve] |
| Cc1cccc(-c2ccc3ncnc(NCc4cccs4)c3c2)c1 | inconclusive: 7.08 µM [inhibitor, full curve, poor fit] |
| NNc1nc(-c2ccccc2Cl)c2cc(Br)ccc2n1 | active: 11.2 µM |
| O=C(NCc1ccccn1)c1ccccc1OCc1ccc(Cl)cc1Cl | inconclusive: 15.8 µM [inhibitor, single point] |
| O=C(Cc1c[nH]c2ccccc12)Nc1nnc(C2CC2)s1 | inconclusive: 8.91 µM [inhibitor, partial curve] |
| O=[N+]([O-])c1ccc2nc(-c3cccnc3)[nH]c2c1 | inconclusive: 14.1 µM [inhibitor, partial curve, poor fit] |
| C=CCNC(=O)c1onc(CSc2ccc(Cl)cc2)c1C(=O)O | inactive |
| Cn1cc([N+](=O)[O-])c(C(=O)Nc2ccc(Br)cn2)n1 | inconclusive: 10 µM [activator, partial curve, poor fit] |
